Source: publication doi:10.1101/2023.10.06.561269 (bioRxiv, 2023)
These are yes or no findings as the source states them, for the method shown. A result given as binding can be weak or reduced; the word gives no strength. For part of these data: In cells and extracts the contact can be indirect.

Assays:
[1] = target: V. cholerae FtsE (V. cholerae); test: cryo-EM structure
[2] = target: V. cholerae FtsE (V. cholerae); test: SEC
[3] = target: V. cholerae FtsE (V. cholerae); test: pull-down

Measured: binding

V. cholerae FtsX (from UniProt A0A0H6I1B7)
binds: all assays above
